Results published in US12458025B2 (priority 2020, dated 2025).
For at least one compound, name, drawing or mass did not settle the structure.

System: Candidatus Liberibacter solanacearum (CLso)
Type: cell-based
Conditions: re-test, five biological replicates, 72 h; tetracycline 250 ppm

Structure (SMILES): CN(C)[C@@H]1C(O)=C(C(N)=O)C(=O)[C@@]2(O)C(O)=C3C(=O)c4c(O)cccc4[C@@](C)(O)[C@H]3C[C@@H]12 [tetracycline]
- inhibition of CLso (FIG. 1b): statistically significant (P<0.05 or 0.01) inhibition
